{"sequences": {"note": "The chains behind the UniProt entries cited, without tags or fusion partners. Where a name states a change or a piece, a line headed by the entry shows the natural chain unless it says otherwise.", "UniProt P00915": "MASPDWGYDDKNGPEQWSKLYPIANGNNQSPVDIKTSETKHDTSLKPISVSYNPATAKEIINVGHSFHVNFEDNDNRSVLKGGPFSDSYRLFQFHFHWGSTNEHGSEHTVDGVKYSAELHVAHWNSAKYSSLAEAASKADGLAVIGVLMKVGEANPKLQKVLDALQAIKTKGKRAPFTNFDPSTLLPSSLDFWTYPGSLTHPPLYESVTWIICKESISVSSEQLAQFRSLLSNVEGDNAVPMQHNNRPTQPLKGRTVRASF"}, "source": "paper PMC7717712", "about": "“The effects of cardiac drugs on human erythrocyte carbonic anhydrase I and II isozymes” (Journal of Enzyme Inhibition and Medicinal Chemistry, 2020)", "format_in_all_cases": "biochemical", "key": {"[1]": {"molecular_target": "T1, human carbonic anhydrase I (hCA I) (Homo sapiens, UniProt P00915)", "T1 construct": "from tissue", "assay": "CO2 hydratase activity assay (Maren method), hCA I", "settings": "enzyme purified from human erythrocytes", "protocol": "(§1) Blood samples (25 ml) from healthy human volunteers were collected. They were centrifuged at 1000g for 20 min at 4 °C, and the supernatant was removed. The packed erythrocytes were washed three times with 0.9% NaCl and then were hemolyzed in cold water. The pH of the hemolysate was adjusted to 8.5 with the solid Tris base. The 25-ml hemolysate was applied to an affinity column containing y Sepharose 4B-ethylene diamine-4-isothiocyanato-benzenesulfonamide[14]. CA isozymes were then eluted with 0.1 M NaCl/25 mM Na2HPO4 (pH 6.3) and 0.1 M CH3COONa/0.5 M NaClO4 (pH 5.6), which recovered hCA I and II, respectively.\n(§2) CA activity was measured by the Maren method based on the determination of the time required for the pH to decrease from 10.0 to 7.4 due to CO2 hydration. The assay solution was 0.5 M Na2CO3/0.1 M NaHCO3 (pH 10.0), and phenol red was added as the pH indicator. Carbon dioxide-hydratase activity was calculated in enzyme units (EU) with the following equation: t0 – tc/tc, where t0 and tc are the times for the pH change of the nonenzymatic and the enzymatic reactions, respectively.\n(§3) The drugs were triturated in a porcelain mortar pestle. Stock solutions of both drugs were prepared in dimethyl sulfoxide (DMSO). […] The duration (in seconds) of the colour change from red to yellow in solution was measured in a 10-ml glass tube with a diameter of 1 cm. […]"}, "[2]": {"molecular_target": "T2, human carbonic anhydrase II (hCA II) (Homo sapiens, UniProt P00918)", "T2 construct": "from tissue", "assay": "CO2 hydratase activity assay (Maren method), hCA II", "settings": "enzyme purified from human erythrocytes", "protocol": "as §1, §2, §3"}, "[3]": {"molecular_target": "T1, human carbonic anhydrase I (hCA I)", "assay": "Esterase activity assay (4-nitrophenyl-acetate), hCA I", "settings": "esterase method, 348 nm, 25 °C", "protocol": "(§4) Blood samples (25 ml) from healthy human volunteers were collected. They were centrifuged at 1000g for 20 min at 4 °C, and the supernatant was removed. The packed erythrocytes were washed three times with 0.9% NaCl and then were hemolyzed in cold water. The pH of the hemolysate was adjusted to 8.5 with the solid Tris base. The 25-ml hemolysate was applied to an affinity column containing y Sepharose 4B-ethylene diamine-4-isothiocyanato-benzenesulfonamide[14].\n(§5) The inhibitory effects of the drugs on enzyme activities were tested under in vitro conditions."}, "[4]": {"molecular_target": "T2, human carbonic anhydrase II (hCA II)", "assay": "Esterase activity assay (4-nitrophenyl-acetate), hCA II", "settings": "esterase method, 348 nm, 25 °C", "protocol": "as §4, §5"}}}
{"smiles": "COC(=O)C1=C(C)NC(C)=C(C(=O)OC)C1c1ccccc1[N+](=O)[O-]", "note": "[Nifedipine]", "values": [{"measurement": "IC50", "setting": "[1]", "result": 77.9, "unit": "µM"}, {"measurement": "IC50", "setting": "[2]", "result": 103, "unit": "µM"}, {"measurement": "IC50", "setting": "[3]", "result": 42.2, "unit": "µM"}, {"measurement": "IC50", "setting": "[4]", "result": 50.6, "unit": "µM"}]}
